This is one part of the list.

The chains behind the UniProt entries cited, without tags or fusion partners. Where a name states a change or a piece, a line headed by the entry shows the natural chain unless it says otherwise.
UniProt Q7Z3E2: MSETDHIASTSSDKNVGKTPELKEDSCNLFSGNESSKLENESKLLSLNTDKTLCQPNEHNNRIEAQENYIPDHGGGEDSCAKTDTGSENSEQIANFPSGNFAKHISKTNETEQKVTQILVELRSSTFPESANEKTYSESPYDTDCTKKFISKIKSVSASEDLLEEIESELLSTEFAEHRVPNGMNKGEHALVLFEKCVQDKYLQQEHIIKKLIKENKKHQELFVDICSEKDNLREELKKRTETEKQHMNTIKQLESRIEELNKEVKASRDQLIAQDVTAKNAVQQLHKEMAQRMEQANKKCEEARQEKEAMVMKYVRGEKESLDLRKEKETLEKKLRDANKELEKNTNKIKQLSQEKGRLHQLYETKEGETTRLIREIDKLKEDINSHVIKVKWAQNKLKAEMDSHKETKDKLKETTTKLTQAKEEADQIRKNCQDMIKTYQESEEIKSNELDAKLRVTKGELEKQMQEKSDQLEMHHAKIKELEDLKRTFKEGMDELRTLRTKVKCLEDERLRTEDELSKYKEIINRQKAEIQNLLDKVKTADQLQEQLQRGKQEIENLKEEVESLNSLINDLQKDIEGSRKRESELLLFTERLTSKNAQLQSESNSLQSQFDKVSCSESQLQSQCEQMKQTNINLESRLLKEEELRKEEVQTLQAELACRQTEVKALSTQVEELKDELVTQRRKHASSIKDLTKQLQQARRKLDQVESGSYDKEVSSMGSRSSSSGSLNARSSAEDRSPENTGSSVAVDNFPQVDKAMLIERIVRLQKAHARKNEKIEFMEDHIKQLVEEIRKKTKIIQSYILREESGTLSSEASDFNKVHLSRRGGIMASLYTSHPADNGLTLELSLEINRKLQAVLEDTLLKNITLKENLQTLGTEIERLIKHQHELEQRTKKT
UniProt Q8N350: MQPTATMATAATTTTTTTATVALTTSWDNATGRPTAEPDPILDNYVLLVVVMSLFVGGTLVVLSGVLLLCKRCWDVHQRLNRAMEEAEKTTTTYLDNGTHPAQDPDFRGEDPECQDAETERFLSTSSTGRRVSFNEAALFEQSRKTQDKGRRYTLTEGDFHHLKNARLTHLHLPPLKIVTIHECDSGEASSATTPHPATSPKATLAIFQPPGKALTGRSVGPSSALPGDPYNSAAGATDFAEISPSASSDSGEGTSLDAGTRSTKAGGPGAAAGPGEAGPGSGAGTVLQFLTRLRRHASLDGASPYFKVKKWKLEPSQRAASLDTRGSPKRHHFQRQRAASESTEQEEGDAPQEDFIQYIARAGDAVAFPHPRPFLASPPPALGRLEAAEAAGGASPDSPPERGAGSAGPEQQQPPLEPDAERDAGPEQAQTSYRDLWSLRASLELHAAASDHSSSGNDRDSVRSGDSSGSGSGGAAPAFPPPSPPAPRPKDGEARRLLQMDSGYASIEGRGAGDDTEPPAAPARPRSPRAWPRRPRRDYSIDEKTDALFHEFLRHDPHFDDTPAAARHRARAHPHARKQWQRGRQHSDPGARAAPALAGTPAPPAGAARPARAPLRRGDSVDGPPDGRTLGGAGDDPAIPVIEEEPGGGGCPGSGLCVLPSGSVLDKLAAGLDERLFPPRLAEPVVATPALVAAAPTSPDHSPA
UniProt Q8N7R7: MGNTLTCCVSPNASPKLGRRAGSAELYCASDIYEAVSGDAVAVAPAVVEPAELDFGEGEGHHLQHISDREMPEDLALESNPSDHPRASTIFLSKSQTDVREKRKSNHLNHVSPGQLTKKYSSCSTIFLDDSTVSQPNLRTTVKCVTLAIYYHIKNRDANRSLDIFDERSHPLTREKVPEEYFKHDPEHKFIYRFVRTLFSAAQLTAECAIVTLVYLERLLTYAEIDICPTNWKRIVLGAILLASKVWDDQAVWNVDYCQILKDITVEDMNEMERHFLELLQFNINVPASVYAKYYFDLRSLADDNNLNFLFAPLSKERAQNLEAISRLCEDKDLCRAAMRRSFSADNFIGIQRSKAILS
UniProt P30304: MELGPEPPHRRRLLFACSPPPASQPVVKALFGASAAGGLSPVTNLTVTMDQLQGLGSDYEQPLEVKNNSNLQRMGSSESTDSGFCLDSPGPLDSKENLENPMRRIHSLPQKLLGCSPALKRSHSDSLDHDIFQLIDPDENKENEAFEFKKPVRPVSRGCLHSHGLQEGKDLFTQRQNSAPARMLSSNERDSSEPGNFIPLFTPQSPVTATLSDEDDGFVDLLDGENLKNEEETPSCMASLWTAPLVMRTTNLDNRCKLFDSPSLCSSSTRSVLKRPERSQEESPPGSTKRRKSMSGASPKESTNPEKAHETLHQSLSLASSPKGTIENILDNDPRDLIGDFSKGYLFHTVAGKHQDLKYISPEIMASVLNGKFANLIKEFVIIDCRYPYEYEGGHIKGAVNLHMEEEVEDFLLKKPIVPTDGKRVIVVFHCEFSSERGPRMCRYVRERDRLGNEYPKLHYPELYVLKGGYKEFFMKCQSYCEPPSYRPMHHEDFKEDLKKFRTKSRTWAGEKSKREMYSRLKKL
UniProt Q13951, whole entry, looked up: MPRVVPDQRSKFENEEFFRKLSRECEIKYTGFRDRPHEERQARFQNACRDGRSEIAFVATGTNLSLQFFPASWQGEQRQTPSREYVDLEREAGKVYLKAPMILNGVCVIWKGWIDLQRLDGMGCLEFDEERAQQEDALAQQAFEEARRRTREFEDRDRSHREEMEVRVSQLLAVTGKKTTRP
UniProt Q8N9Z2: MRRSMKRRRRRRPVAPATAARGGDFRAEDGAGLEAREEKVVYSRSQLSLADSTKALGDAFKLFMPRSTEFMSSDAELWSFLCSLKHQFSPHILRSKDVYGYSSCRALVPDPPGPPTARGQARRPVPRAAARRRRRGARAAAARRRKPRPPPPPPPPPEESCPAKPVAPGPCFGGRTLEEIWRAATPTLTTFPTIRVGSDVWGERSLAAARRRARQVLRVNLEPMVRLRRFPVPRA
UniProt P55210: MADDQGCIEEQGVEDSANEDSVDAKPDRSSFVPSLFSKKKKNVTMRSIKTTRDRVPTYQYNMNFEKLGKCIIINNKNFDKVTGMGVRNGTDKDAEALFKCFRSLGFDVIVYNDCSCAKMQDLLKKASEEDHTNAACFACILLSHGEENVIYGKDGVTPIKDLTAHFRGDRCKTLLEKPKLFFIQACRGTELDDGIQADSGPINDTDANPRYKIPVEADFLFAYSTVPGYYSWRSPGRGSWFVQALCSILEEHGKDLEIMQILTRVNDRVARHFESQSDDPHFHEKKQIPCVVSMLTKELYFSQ
UniProt P24864, whole entry, looked up: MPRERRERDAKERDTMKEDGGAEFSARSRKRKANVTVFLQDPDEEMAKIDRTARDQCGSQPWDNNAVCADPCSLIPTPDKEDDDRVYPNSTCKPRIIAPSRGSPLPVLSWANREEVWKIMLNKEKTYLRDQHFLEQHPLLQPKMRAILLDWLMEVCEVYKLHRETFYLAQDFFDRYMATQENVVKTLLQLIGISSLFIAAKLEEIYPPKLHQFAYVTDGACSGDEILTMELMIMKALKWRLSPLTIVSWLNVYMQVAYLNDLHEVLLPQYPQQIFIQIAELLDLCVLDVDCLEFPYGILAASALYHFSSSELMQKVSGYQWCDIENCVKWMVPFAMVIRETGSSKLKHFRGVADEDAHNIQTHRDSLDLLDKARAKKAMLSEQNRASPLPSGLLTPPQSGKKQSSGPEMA
UniProt Q8TCZ2: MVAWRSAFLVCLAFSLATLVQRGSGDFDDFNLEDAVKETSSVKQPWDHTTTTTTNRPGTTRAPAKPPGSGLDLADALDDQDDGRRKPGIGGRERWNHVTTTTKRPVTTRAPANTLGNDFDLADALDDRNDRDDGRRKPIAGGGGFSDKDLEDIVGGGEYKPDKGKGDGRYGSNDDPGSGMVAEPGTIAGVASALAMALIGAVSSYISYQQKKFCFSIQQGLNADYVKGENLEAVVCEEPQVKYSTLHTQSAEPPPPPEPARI
UniProt O95400: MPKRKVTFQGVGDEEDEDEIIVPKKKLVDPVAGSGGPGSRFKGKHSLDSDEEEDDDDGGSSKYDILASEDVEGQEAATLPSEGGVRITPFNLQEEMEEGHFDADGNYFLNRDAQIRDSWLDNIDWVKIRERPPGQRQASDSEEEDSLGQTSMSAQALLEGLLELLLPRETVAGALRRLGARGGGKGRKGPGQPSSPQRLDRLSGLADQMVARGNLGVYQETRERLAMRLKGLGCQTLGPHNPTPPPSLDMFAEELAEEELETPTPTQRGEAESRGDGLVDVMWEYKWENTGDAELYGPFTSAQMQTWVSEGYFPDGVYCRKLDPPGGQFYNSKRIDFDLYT
UniProt Q8ND76: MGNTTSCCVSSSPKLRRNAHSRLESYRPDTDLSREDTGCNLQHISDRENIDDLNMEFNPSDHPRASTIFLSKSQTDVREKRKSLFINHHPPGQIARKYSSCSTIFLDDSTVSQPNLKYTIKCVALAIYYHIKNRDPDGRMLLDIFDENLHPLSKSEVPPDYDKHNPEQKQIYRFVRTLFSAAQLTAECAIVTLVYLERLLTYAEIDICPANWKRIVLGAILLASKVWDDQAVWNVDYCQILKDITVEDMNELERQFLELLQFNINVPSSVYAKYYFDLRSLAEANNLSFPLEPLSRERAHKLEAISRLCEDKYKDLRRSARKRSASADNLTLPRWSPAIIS
UniProt Q5M9N0: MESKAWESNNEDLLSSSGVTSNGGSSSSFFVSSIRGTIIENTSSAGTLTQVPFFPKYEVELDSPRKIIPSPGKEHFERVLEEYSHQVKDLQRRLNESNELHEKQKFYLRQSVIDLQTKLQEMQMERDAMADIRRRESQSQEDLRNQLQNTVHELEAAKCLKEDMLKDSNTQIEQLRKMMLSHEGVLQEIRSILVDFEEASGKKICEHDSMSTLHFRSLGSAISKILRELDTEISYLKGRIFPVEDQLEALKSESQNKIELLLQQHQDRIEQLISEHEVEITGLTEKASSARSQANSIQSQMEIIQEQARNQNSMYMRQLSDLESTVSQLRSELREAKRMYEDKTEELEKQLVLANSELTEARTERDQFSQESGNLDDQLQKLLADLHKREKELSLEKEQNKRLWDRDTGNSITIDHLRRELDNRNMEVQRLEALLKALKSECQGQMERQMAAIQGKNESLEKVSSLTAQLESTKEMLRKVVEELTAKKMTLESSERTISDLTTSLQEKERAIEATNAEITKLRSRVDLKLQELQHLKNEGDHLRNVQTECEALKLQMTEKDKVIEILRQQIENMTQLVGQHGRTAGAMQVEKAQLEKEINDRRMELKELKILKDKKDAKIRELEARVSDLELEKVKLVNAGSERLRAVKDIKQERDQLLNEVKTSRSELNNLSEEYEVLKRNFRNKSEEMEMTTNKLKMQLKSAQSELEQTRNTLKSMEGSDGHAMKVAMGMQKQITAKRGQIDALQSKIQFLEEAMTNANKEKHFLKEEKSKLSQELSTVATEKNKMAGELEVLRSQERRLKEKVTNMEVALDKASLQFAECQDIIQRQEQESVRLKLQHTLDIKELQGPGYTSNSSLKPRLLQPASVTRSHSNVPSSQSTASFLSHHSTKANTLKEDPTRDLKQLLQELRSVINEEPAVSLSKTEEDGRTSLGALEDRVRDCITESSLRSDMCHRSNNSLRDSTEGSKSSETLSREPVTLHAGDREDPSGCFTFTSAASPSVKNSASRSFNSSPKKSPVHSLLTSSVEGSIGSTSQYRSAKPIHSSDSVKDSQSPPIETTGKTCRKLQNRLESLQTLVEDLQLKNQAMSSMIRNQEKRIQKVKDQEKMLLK
UniProt Q12834, whole entry, looked up: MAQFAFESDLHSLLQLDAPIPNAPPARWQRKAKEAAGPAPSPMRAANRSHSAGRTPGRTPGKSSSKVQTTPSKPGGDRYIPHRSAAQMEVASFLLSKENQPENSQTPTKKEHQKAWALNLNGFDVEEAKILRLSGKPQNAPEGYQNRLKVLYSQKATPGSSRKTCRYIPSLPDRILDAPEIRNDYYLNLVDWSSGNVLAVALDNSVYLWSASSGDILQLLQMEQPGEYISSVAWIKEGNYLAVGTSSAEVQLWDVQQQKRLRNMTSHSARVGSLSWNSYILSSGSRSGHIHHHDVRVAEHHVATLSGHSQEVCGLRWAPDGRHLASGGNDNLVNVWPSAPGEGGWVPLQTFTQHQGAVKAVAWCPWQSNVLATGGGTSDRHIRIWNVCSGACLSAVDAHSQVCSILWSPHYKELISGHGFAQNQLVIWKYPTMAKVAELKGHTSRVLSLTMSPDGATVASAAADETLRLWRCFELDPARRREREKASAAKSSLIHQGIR
UniProt Q07108: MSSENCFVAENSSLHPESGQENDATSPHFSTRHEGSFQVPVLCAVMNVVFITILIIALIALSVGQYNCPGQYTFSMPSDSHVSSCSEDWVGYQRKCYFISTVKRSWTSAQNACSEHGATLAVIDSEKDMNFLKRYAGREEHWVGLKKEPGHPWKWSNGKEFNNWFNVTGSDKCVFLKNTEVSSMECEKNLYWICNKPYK
UniProt P51636: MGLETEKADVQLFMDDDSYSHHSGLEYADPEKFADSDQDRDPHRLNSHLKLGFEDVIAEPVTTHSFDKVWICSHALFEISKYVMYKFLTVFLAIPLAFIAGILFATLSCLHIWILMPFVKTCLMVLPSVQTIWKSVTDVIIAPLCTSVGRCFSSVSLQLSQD

Compound in one assay: CC[C@@H]1C(=O)N(C)c2cnc(Nc3ccc(C(=O)NC4CCN(C)CC4)cc3OC)nc2N1C1CCCC1
The assay can be described thus: log2 fold change, soluble protein after heating vs DMSO (PISA); higher = thermal stabilisation; K562 cells, 10 uM, 30 min; active = over 0.2 and 3.5 SD of the protein, either way, in both replicates (recomputed). A digest of the protocol:
(§1)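 Quantification of soluble protein used TMTpro 16plex LC-MS/MS, with channel sums equalised. Samples were the supernatant after 21,000xg for 90 min of pooled aliquots from K562 cells (2×10^6 cells/mL) treated with 10 μM compound for 30 min, heated for 3 min over 48°C-58°C, and extracted in PBS with 0.5% NP-40 at 4°C. Values, from duplicates, describe thermal stability against control samples on a log2 fold-change scale.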
As to CCNDBP1 (UniProt O95273), the log2 fold change was inactive: 0.088.
For the target CBX8 (UniProt Q9HC52), the log2 fold change is inactive: -0.382.
Still for that read-out and setting: the result for CCDC186 (UniProt Q7Z3E2) reads inactive: 0.154.
For CBARP (UniProt Q8N350), the log2 fold change was inactive: -0.081.
Still for that read-out and setting: the result for CDC37 (UniProt K7EKQ2) reads inactive: -0.091.
With CCNYL1 (UniProt Q8N7R7), the log2 fold change was inactive: -0.01.
For CDC25A (UniProt P30304), the log2 fold change is inactive: 0.054.
Same read-out and setting: the result for CBFB (UniProt Q13951) reads inactive: -0.175; that for CCDC71L isoform 2 (UniProt Q8N9Z2), inactive: 0.113.
Still for that read-out and setting: the result for CASP7 isoform 3 (UniProt P55210) reads inactive: 0.014.

Compound in the next assay: CC[C@@H]1C(=O)N(C)c2cnc(Nc3ccc(C(=O)N[C@H]4CC[C@H](N5CCN(CC6CC6)CC5)CC4)cc3OC)nc2N1C(C)C [volasertib]
The assay is described as above. In a few lines:
as §1
As to CCNE1 (UniProt P24864), the log2 fold change was inactive: -0.257.
In the case of CD99L2 isoform 5 (UniProt Q8TCZ2), the log2 fold change is inactive: 0.105.
On the same count and under the same terms, with CD2BP2 (UniProt O95400) the figure was inactive: -0.118.
On to CDC27 (UniProt G5EA36), for which the log2 fold change was inactive: -0.152.
CD44 (UniProt P16070): the log2 fold change is inactive: -0.004.
Consider CCNY (UniProt Q8ND76), for which the log2 fold change was inactive: -0.076.
On to CCDC158 (UniProt Q5M9N0), for which the log2 fold change is inactive: 0.16.
The same measure, in the same setting: the result for CDC20 (UniProt Q12834) reads inactive: -0.12; that for CD69 (UniProt Q07108), inactive: 0.18.
Same read-out and setting: the result for CCT6B isoform 3 (UniProt Q92526) reads inactive: -0.295; that for CD37 (UniProt P11049), inactive: 0.371.
On to CAV2 (UniProt P51636), for which the log2 fold change was inactive: -0.098.
Same read-out and setting: the result for CCDC28B (UniProt Q9BUN5) reads inactive: 0.039.

Compound in the next assay: CC[C@H](C)N1C=C(C2=C(C=C(C=C21)C3=CN=C(C=C3)N4CCNCC4)C(=O)NCC5=C(C=C(NC5=O)C)C)C
Described as above. A digest of the protocol:
as §1
Take CCNDBP1 (UniProt O95273): the log2 fold change was inactive: 0.133.
The same measure, in the same setting: with CCDC186 (UniProt Q7Z3E2) the figure was inactive: -0.046; with CD99L2 isoform 5 (UniProt Q8TCZ2), inactive: -0.06.
Still for that read-out and setting: the result for CCDC66 (UniProt A2RUB6) reads inactive: 0.15; that for CDC25C (UniProt P30307), inactive: -0.065.
Consider CCDC187, A0A1W2PQX5, for which the log2 fold change is inactive: 0.012.
The same measure, in the same setting: the result for CCNY (UniProt Q8ND76) reads inactive: -0.037; that for CCDC158 (UniProt Q5M9N0), inactive: 0.02.
Same read-out and setting: the result for CBARP (UniProt Q8N350) reads inactive: 0.147.
As for CD82 (UniProt P27701), the log2 fold change is inactive: 0.038.
Same read-out and setting: the result for CCNYL1 (UniProt Q8N7R7) reads inactive: 0.042; that for CDC25A (UniProt P30304), inactive: -0.022.
For the target CBFB (UniProt Q13951), the log2 fold change was inactive: 0.042.
Consider CCNL2 (UniProt Q96S94), for which the log2 fold change is inactive: 0.23.
For the target CD69 (UniProt Q07108), the log2 fold change is inactive: 0.051.
The same measure, in the same setting: the result for CASP7 isoform 3 (UniProt P55210) reads inactive: 0.017; that for CD37 (UniProt P11049), inactive: 0.024; that for CAV2 (UniProt P51636), inactive: -0.032.

Compound in another assay: CC[C@H](C)[C@@H](C(=O)N[C@@H]([C@@H](C)O)C(=O)N[C@@H](CC(C)C)C(=O)[C@]1(CO1)C)NC(=O)[C@H]([C@@H](C)CC)N(C)C(=O)C [epoxomicin]
The description is as above. A digest of the protocol:
as §1
Take CCNE1 (UniProt P24864): the log2 fold change is inactive: 0.155.
Same read-out and setting: the result for CD99L2 isoform 5 (UniProt Q8TCZ2) reads inactive: 0.004; that for CD2BP2 (UniProt O95400), inactive: -0.025.
In the case of CCDC66 (UniProt A2RUB6), the log2 fold change was inactive: 0.02.
The same measure, in the same setting: the result for CDC25C (UniProt P30307) reads inactive: 0.111.
With CDC27 (UniProt G5EA36), the log2 fold change was inactive: -0.069.
As to CCDC187, A0A1W2PQX5, the log2 fold change is inactive: 0.085.
On the same count and under the same terms, with CCNY (UniProt Q8ND76) the figure was inactive: 0.006.
As for CCDC158 (UniProt Q5M9N0), the log2 fold change is inactive: -0.175.
On the same count and under the same terms, the result for CBARP (UniProt Q8N350) reads inactive: -0.084; that for CDC37 (UniProt K7EKQ2), inactive: 0.29; that for CD82 (UniProt P27701), inactive: 0.136.
The same measure, in the same setting: with CD84 (UniProt Q9UIB8) the figure was inactive: -0.009; with CCNYL1 (UniProt Q8N7R7), inactive: -0.03; with CDC25A (UniProt P30304), inactive: -0.007.
In the case of CCNC (UniProt P24863), the log2 fold change was inactive: 0.035.
On the same count and under the same terms, with CCNL2 (UniProt Q96S94) the figure was inactive: 0.261; with CCDC71L isoform 2 (UniProt Q8N9Z2), inactive: -0.03.
Take CDC20 (UniProt Q12834): the log2 fold change is inactive: 0.132.
With CD69 (UniProt Q07108), the log2 fold change was inactive: 0.082.
Regarding CD9 (UniProt P21926), the log2 fold change was inactive: -0.2.
In the case of CASP7 isoform 3 (UniProt P55210), the log2 fold change is inactive: 0.222.

Compound in another assay: CCn1c(C(=O)N(C2CC2)C2CC2)cc2c3c(ncn3C)c(Nc3cc(C)n(C)n3)nc21
Described as above. A digest of the protocol: as §1
In the case of CCNE1 (UniProt P24864), the log2 fold change was inactive: 0.002.
Regarding CCDC186 (UniProt Q7Z3E2), the log2 fold change is inactive: -0.089.
CD99L2 isoform 5 (UniProt Q8TCZ2): the log2 fold change was inactive: 0.008.
The same measure, in the same setting: the result for CD2BP2 (UniProt O95400) reads inactive: 0.093; that for CDC27 (UniProt G5EA36), inactive: 0.061.
Same read-out and setting: the result for CBFA2T2 isoform 4 (UniProt O43439) reads inactive: -0.046.
For CCNY (UniProt Q8ND76), the log2 fold change was inactive: 0.054.
The same measure, in the same setting: with CCNE2 (UniProt O96020) the figure was inactive: 0.061; with CCDC158 (UniProt Q5M9N0), inactive: 0.102; with CD82 (UniProt P27701), inactive: -0.084.
On the same count and under the same terms, the result for CCNYL1 (UniProt Q8N7R7) reads inactive: 0.089; that for CDC25A (UniProt P30304), inactive: -0.05.
With CBFB (UniProt Q13951), the log2 fold change is inactive: -0.03.
Consider CCDC71L isoform 2 (UniProt Q8N9Z2), for which the log2 fold change is inactive: -0.138.
With CDC20 (UniProt Q12834), the log2 fold change was inactive: 0.078.
For CCT6B isoform 3 (UniProt Q92526), the log2 fold change was inactive: -0.163.
CCDC28B (UniProt Q9BUN5): the log2 fold change was inactive: -0.061.

For the origin of these results see the supplement of paper PMC10849652.
